Data as given in PubChem BioAssay AID1259254 (NCATS, 2017).
The whole screen tested about 59,000 reagents; shown is an unselected part. About 1,550 of them (2.6%) count as active. 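G2 share is only a proxy for re-replication; each gene was hit by three separate siRNAs, and active genes were retested.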 Unmarked entries are inactive. Not all columns of the deposit are shown. Not given: the amount of reagent.

Assay: 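Finding genes that stop cells copying their DNA twice in one cycle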 (primary screen)
Cells: human HCT116 colorectal cancer cells
Reagent: single siRNA against human genes
Time to read-out: 3 days
Measurement: 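Nuclei stained with Hoechst and imaged; cell-cycle phase assigned by DNA content; G2 share scaled per plate, non-targeting siRNA 0%, GMNN siRNA 100%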
Scale: G2 robust z-score: higher = more G2 cells, more excess DNA replication
Rule for the call: 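Active siRNAs have a G2 robust z of 5 or more median absolute deviations over the median, which in these data means about 38% or higher of GMNN control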

| gene knocked down | PubChem SID | G2 robust z-score |
| --- | --- | --- |
| FEM1B (GeneID 10116) | SID160725569 | -0.0711 |
| FEM1B (GeneID 10116) | SID160725575 | 0.587 |
| FEM1B (GeneID 10116) | SID160725582 | 0.252 |
| DNAJC6 (GeneID 9829) | SID160723200 | 1.35 |
| DNAJC6 (GeneID 9829) | SID160723201 | -1.01 |
| DNAJC6 (GeneID 9829) | SID160723202 | -0.134 |
| HDGFL2 (GeneID 84717) | SID160752646 | -0.434 |
| HDGFL2 (GeneID 84717) | SID160752647 | 1.76 |
| HDGFL2 (GeneID 84717) | SID160752648 | 2.91 |
| STMP1 (GeneID 647087) | SID160768466 | -0.653 |
| STMP1 (GeneID 647087) | SID160768467 | -0.6 |
| STMP1 (GeneID 647087) | SID160768468 | 0.358 |
| STMP1 (GeneID 647087) | SID160770128 | 0.486 |
| STMP1 (GeneID 647087) | SID160770129 | -0.848 |
| STMP1 (GeneID 647087) | SID160770130 | -0.402 |
| LOC646999 (GeneID 646999) | SID160725998 | 0.162 |
| LOC646999 (GeneID 646999) | SID160725999 | -0.623 |
| LOC646999 (GeneID 646999) | SID160770100 | 0.631 |

Next part; the last 4 above are carried over.
| gene knocked down | PubChem SID | G2 robust z-score |
| --- | --- | --- |
| STMP1 (GeneID 647087) | SID160770130 | -0.402 |
| LOC646999 (GeneID 646999) | SID160725998 | 0.162 |
| LOC646999 (GeneID 646999) | SID160725999 | -0.623 |
| LOC646999 (GeneID 646999) | SID160770100 | 0.631 |
| STK32C (GeneID 282974) | SID160762746 | -1.23 |
| STK32C (GeneID 282974) | SID160762747 | 0.275 |
| STK32C (GeneID 282974) | SID160762748 | -0.581 |
| CAPN8 (GeneID 388743) | SID160765979 | -0.526 |
| CAPN8 (GeneID 388743) | SID160765980 | 0.488 |
| CAPN8 (GeneID 388743) | SID160765981 | 0.257 |
| CAPN8 (GeneID 388743) | SID160769122 | 0.702 |
| CAPN8 (GeneID 388743) | SID160769123 | -0.707 |
| CAPN8 (GeneID 388743) | SID160769124 | -1.43 |
| ILKAP (GeneID 80895) | SID160750647 | -1.28 |
| ILKAP (GeneID 80895) | SID160750648 | -0.353 |
| ILKAP (GeneID 80895) | SID160750649 | 0.84 |
